Test results as given in US5032597A, “Method of using phenylquinolinecarboxylic acids and derivatives for lymthoid leukemia treatment in a mammal” (priority 1987, dated 1991).
The name of at least one read-out is uncertain.

Tested on: L1210 leukemia
Experiment: Lymphoid Leukemia L1210, survival of tumored mice
Type: in vivo, CD2F1 mice
Conditions: 25 mg/kg i.p.
Procedure: The efficacy of the compounds of this invention against the transplanted mouse tumors was evaluated in test systems currently in use at the National Cancer Institute for the detection and assessment of anticancer activity. […] J. Cancer, 17, 129-142, (1981); Venditti, J. M., Seminars in Oncology, 8 (4) (1981); Goldin, A. and J. M. Venditti, in Recent Results in Cancer Research, 70, S. K. Carter and Y. Sakurai, Eds., Springer-Verlag, Berlin/Heidelberg, 1980].
The animals used in this test were CD2 F1 mice, all males weighing a minimum of 18 g and all within a 4 g weight range at the start of the test. The test group consisted of six mice. The tumor was implanted in each of the test mice by the intraperitoneal injection of 0.1 ml of diluted ascitic fluid containing 10^5 cells drawn from a mouse with L1210 leukemia. […] The mice were weighed and survivors were recorded on a regular basis for 30 days. The median survival time and the ratio of the median survival time for the treated (T) and control (C) mice was calculated. […] Drug effectiveness was assessed on the basis of the survival time. Results were expressed as a percentage of the control survival time (Median Survival Time: T/C ×100%). The criterion for effectiveness was determined by: T/C×100≥125 percent.

## Cc1c(-c2ccc(-c3ccccc3F)cc2)nc2ccc(F)cc2c1C(=O)[O-].[Na+] [Example 118, Sodium 2-(2'-Fluoro-1,1'-biphenyl-4-yl)-6-fluoro-3-methylquinoline-4-carboxylate]
  L1210 Leukemia % T/C (median survival time): 195%
